PubChem BioAssay AID602196 | INSERM | 2012
Shown is a random part of about 23,000 reagents. 455 of all reagents (2%) count as active. 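Active includes both protection and sensitisation; some change values fall well beyond the stated -50 to +50 range.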 The record does not give: the amount of reagent.

Screen: 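Modifiers of cisplatin sensitivity in A549 cells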
Cell system: human A549 lung cancer cells
Reagent: siRNA pair against human genes
Duration: 48 h transfection before cisplatin; time from cisplatin to read-out not stated
Challenge: cisplatin at a dose killing half of control-siRNA cells; exact dose and duration not given
Detection: 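Cisplatin cell death as a shift from the 50% death seen with control siRNA; siRNAs toxic or growth-blocking alone scored 0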
Direction: two-siRNA summed score (-2 to +2): higher = both siRNAs protect from cisplatin killing; -2 means both sensitise; mean protection from cisplatin (shift in death) and protection from cisplatin (shift in death), siRNA C and protection from cisplatin (shift in death), siRNA D: higher = protection from cisplatin killing
Rule for the call: 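siRNAs harmful alone (LDH or WST-1) get 0; others get +1 for less and -1 for more cisplatin killing; genes are active when the two siRNAs give the same sign, summing to ±2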
Meaning of the calls: active = both siRNAs shift cisplatin killing the same way; inactive = no consistent shift, or siRNA harmful alone

gene	two-siRNA summed score (-2 to +2)	mean protection from cisplatin (shift in death) (%)	protection from cisplatin (shift in death), siRNA C (%)	protection from cisplatin (shift in death), siRNA D (%)	outcome
JPT1	-1	0.7	-9.3	10.7	inactive
LOC440454	1	16.8	4.7	29	inactive
LOC343066	0	-1.4	-3.9	1.1	inactive
LOC387854	1	5.6	-20.2	31.4	inactive
C12orf42	-1	-7.5	-3.4	-11.7	inactive
ANGPTL5	-1	-6.2	13	-25.4	inactive
RBPMS2	0	15.3	6.1	24.6	inactive
CTSL	-1	-10.4	2.8	-23.7	inactive
CLDN17	0	-8.6	-4.5	-12.7	inactive
LOC389000	1	-0.8	-13.1	11.6	inactive
OR14J1	0	7.3	8.9	5.7	inactive
PIGT	0	13.3	23.1	3.5	inactive
CHFR	0	7.3	19.2	-4.5	inactive
TNFRSF13C	0	-3.8	-36.8	29.1	inactive
ARLN	1	9.5	-7.8	26.7	inactive
TMEM259	0	3.3	-3.2	9.9	inactive
TFDP2	0	4.1	-7.8	16	inactive
COQ10B	0	5.2	8.5	2	inactive
SNRNP200	0	1.6	4.8	-1.5	inactive
PDX1	0	3.4	6.1	0.8	inactive
SEMA5B	1	12.3	16.3	8.2	inactive
DMRT1	-1	-23.3	-20.6	-25.9	inactive
PDXDC1	0	10.4	14.6	6.3	inactive

Part of the list above, reformatted:
LOC343066
- two-siRNA summed score (-2 to +2): 0
- mean protection from cisplatin (shift in death) (%): -1.4
- protection from cisplatin (shift in death), siRNA C (%): -3.9
- protection from cisplatin (shift in death), siRNA D (%): 1.1
- outcome: inactive

LOC387854
- two-siRNA summed score (-2 to +2): 1
- mean protection from cisplatin (shift in death) (%): 5.6
- protection from cisplatin (shift in death), siRNA C (%): -20.2
- protection from cisplatin (shift in death), siRNA D (%): 31.4
- outcome: inactive
